Screen size: about 360,000 compounds; about 7,500 (2.1%) were called active. The inconclusive results got no clear call from the source; some entries with a clear call stand among them for comparison. Calls follow the shape of the dose curve; as a rule, active = well fitted inhibition curve with a large enough effect; inconclusive = small, poorly fitted or top-dose-only effect, or effect the other way; inactive = flat fitted curve, though single readings scatter. Potencies beside an inconclusive call are fits to weak or partial responses and may not hold up.
Assay: Nrf2 qHTS screen for inhibitors; also: nearly all actives have a fitted effect of over 60% in size
Conditions: A549 ARE-Fluc reporter, luciferase luminescence, 18-24 h; activity change, negative = inhibition: at 46 µM (top of the series)
Outline: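 Nrf2 activity is the BugLite luminescence, read 15 min after reagent at room temperature, following CellTiter-Fluor cytotoxicity readout (30 min, 37C). Compound titrations were applied for 18-24 h to 5000 A549 ARE_Fluc cells/well in 5% FBS OPTI-MEM.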
% is scaled to controls: 0 for no effect and ±100 for the full control effect; potency is read from the fitted curve at half-maximal effect.

Compound	Potency	activity change, negative = inhibition
CCN(CCO)c1ccc(N=Nc2cc(C)[nH]n2)cc1	inconclusive: 32.6 µM [falling, single point]	–
Cc1nn(C)c(Oc2ccccc2)c1CCNS(=O)(=O)c1ccccc1	inconclusive: 16.4 µM [falling, partial curve, poor fit]	–
COc1cccc(CNC(=O)c2c(O)nc3ccccn3c2=O)c1	inconclusive: 25.9 µM [falling, partial curve, poor fit]	–
O=C(C1CC1)N1CCc2cc(S(=O)(=O)N3CCCc4ccccc43)ccc21	inconclusive: 29.1 µM [falling, single point]	–
COc1ccc(Cl)cc1NC(=O)C1CC(c2c(F)cccc2Cl)=NO1 (stereo not drawn)	inconclusive: 18.4 µM [falling, partial curve]	–
CC(C)(C)c1cc(NC(=O)c2cc(F)c(F)c(F)c2F)no1	inconclusive: 14.6 µM [activator, single point]	–
CC(NS(=O)(=O)OCC(Cl)(Cl)Cl)c1ccc(C(C)(C)C)cc1 (stereo not drawn)	inconclusive: 23.1 µM [falling, single point]	–
Cc1cccc(NC(=O)c2ccc(OCC3CCCO3)cc2)c1C (stereo not drawn)	inconclusive: 25.9 µM [activator, partial curve, poor fit]	–
COc1cc(/C=C2/NC(=O)N(Cc3ccccc3F)C2=O)cc(OC)c1OC	–	inactive: -22.1%
CCOC(=O)CN1C(=O)C(C)(C)Oc2ccc(C(=O)Nc3ccccc3)cc21	–	inactive: 3.06%
COc1ccc2c(c1)OC[C@H]1[C@H]2N2C(=O)c3cc(F)ccc3NC(=O)[C@@]2(C)[C@H]1c1ccccc1	inconclusive: 11.6 µM [falling, partial curve, poor fit]	–
COc1cc(SC)ccc1C(=O)Nc1ccon1	inconclusive: 16.4 µM [activator, partial curve]	–
CCOC(=O)c1c(C)[nH]c(C)c1C(=O)COc1ccc(NC(=O)c2ccco2)cc1	inconclusive: 29.1 µM [activator, single point]	–
Cc1ccc(N(CC(=O)NC2CCCC2)C(=O)CCCC(=O)Nc2ccccn2)cc1C	–	inactive: 8.21%
CC(C)n1c(NCc2ccccc2O)nc2ccccc21	–	inactive: 2.67%
CC(C)CCNC(=O)c1cc(S(=O)(=O)N2CCc3ccccc32)cn1C	inconclusive: 29.1 µM [falling, single point]	–
COc1ccc(C(=O)N2CCc3cc(OC)c(OC)cc3C2)cc1OC	inconclusive: 14.6 µM [falling, partial curve, poor fit]	–
O=[N+]([O-])c1cc(C=NN2CCCCCC2)ccc1Cl	inconclusive: 8.2 µM [activator, partial curve]	–

Structural class: the compounds so far with fluorine (4)
Compound	Potency	activity change, negative = inhibition
COc1ccc(Cl)cc1NC(=O)C1CC(c2c(F)cccc2Cl)=NO1 (stereo not drawn)	inconclusive: 18.4 µM [falling, partial curve]	–
CC(C)(C)c1cc(NC(=O)c2cc(F)c(F)c(F)c2F)no1	inconclusive: 14.6 µM [activator, single point]	–
COc1cc(/C=C2/NC(=O)N(Cc3ccccc3F)C2=O)cc(OC)c1OC	–	inactive: -22.1%
COc1ccc2c(c1)OC[C@H]1[C@H]2N2C(=O)c3cc(F)ccc3NC(=O)[C@@]2(C)[C@H]1c1ccccc1	inconclusive: 11.6 µM [falling, partial curve, poor fit]	–

From PubChem BioAssay AID504444 (National Center for Advancing Translational Sciences (NCATS), 2011)
